# Among all 360,000 compounds or so, about 7,500 (2.1%) were called active. Inconclusive means that the source gave no clear call. Such entries were picked first, then a sample of the others. Calls come from the whole dose curve; as a rule, active = well fitted inhibition curve with a large enough effect; inconclusive = small, poorly fitted or top-dose-only effect, or effect the other way; inactive = flat fitted curve, though single readings scatter. Potencies of inconclusive entries are doubtful fits and often do not repeat.
# Assay: Nrf2 qHTS screen for inhibitors; note: nearly all actives have a fitted effect of over 60% in size
# Conditions: A549 ARE-Fluc reporter, luciferase luminescence, 18-24 h; activity change, negative = inhibition: at 46 µM (top of the series)
# In short: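 A549 ARE_Fluc cells (5000/well, 5% FBS OPTI-MEM) pre-incubated 2 h, then treated with compounds 18-24 h at 37C/5% CO2 in concentration-response. CellTiter-Fluor viability read first; BugLite luciferase luminescence after 15 min at room temperature gives Nrf2 activity.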
# % is set by controls: 0 for no effect and ±100 for the full control effect; potency is the fitted concentration of half-maximal effect.
Compound,Potency,"activity change, negative = inhibition"
COc1cccc(NC(=O)C(Sc2nnc(-c3ccncc3)n2-c2ccc(Cl)cc2)c2ccccc2)c1 (stereo unspecified),"inconclusive: 13 µM [falling, partial curve]",
COc1cc2[nH]c(=O)n(CCC(=O)N3CCN(c4ccc(Cl)cc4)CC3)c(=O)c2cc1OC,,inactive: 5.06% [at 9.27 µM]
CCOc1ccc2c(c1)nc(SCC(=O)c1cccs1)n2C,"inconclusive: 9.2 µM [activator, partial curve]",
Oc1ccc(-c2csc(Nc3ncccn3)n2)c(O)c1,"inconclusive: 23.1 µM [activator, single point]",
O=C(/C=C/c1ccccc1)N1CCN(c2cccc(Cl)n2)CC1,"inconclusive: 13 µM [falling, partial curve, poor fit]",
COCCN1Cc2cccc(C(=O)Nc3ccc(S(=O)(=O)N4CCOCC4)cc3)c2C1=O,"inconclusive: 13 µM [falling, partial curve, poor fit]",
COc1ccc(OC)c(C2=C[N+](=O)C(C)(C)C(C)(C)N2[O-])c1,"inconclusive: 23.1 µM [activator, single point]",
COc1ccccc1N1CCN(C2CCCN(C(=O)CCN3CCCCO3)C2)CC1 (stereo unspecified),"inconclusive: 0.0184 µM [falling, full curve, poor fit]",
CCCCC[C@@H]1C=C(C(=O)O)[C@H](c2ccc(C)cc2)N1S(=O)(=O)c1ccc(C)cc1,"inconclusive: 20.6 µM [falling, partial curve]",
O=C(Nc1ccccc1OC(=O)c1ccccc1)c1ccccc1,inactive,
Cn1c(-c2cccs2)nc2ccccc21,"inconclusive: 5.8 µM [activator, full curve, poor fit]",
COc1cccc(OC)c1C(=O)Nc1ccc(Cc2ccncc2)cc1,"inconclusive: 16.4 µM [falling, partial curve]",
CCOC(=O)/C=C/C(=O)OCC(=O)N1CCN(C(=O)c2ccco2)CC1,inactive,
O=C(CSC(=S)N1CCN(c2ccccc2)CC1)Nc1nc(-c2ccccc2)c(-c2ccccc2)o1,"inconclusive: 6.51 µM [activator, single point]",
O=C(COc1ccccc1Cl)NCCCNC(=O)c1ccccn1,"inconclusive: 32.6 µM [falling, single point]",
Cc1cc(C)c2ccc3c(C)c(C)n(C)c3c2n1,"inconclusive: 20.6 µM [activator, partial curve, poor fit]",
CCN(CC)C(=O)N1CCN(C(=O)N(CC)CC)CC1,inactive,
Nc1nnc(/C=C/c2ccccc2)s1,"inconclusive: 10.3 µM [activator, partial curve]",
O=c1c2cc(NC(=S)NC3CCCC3)ccc2nc2n1CCCCC2,"inconclusive: 25.9 µM [activator, partial curve]",
COc1ccc(OC)c(C(C)NC(=O)C(C)Cc2ccccc2)c1 (stereo unspecified),inactive,
CCOc1ccc(NC(=O)c2ccccn2)cc1,"inconclusive: 29.1 µM [falling, single point]",

Compound,Potency,"activity change, negative = inhibition"
COc1cccc(-c2nnc(SC(C(=O)c3c[nH]c4ccccc34)c3ccccc3)n2C)c1 (stereo unspecified),"inconclusive: 25.9 µM [falling, single point]",
O=C(CN1C(=O)c2cccnc2Oc2ccc(Cl)cc21)NCCc1ccccc1,"inconclusive: 29.1 µM [activator, single point]",
CCN(CC)CCCNc1ccc(-c2nnc(-c3ccc(OCC(C)C)cc3)o2)cn1,"inconclusive: 23.1 µM [falling, single point]",
Cc1ccc(NC(=O)CN2C(=O)COc3ccc(S(=O)(=O)NC4CCCC4)cc32)cc1Cl,"inconclusive: 14.6 µM [falling, partial curve, poor fit]",
O=C(Nc1ccccc1N1CCCCC1)c1ccc(-c2cc(Cl)ccc2Cl)o1,"inconclusive: 6.51 µM [activator, single point]",
O=C(/C=C/c1ccccc1)Nc1cccc(C(=O)NCCCc2ccccc2)c1,"inconclusive: 29.1 µM [falling, single point]",
CC(C)(C)c1ccc(OCC(=O)NNC(=S)NC(=O)c2ccccc2[N+](=O)[O-])c(Br)c1,"inconclusive: 29.1 µM [falling, single point]",
Cn1c(CC(=O)Nc2ccccc2F)nnc1SCC(=O)Nc1ccccc1Br,inactive,
Cc1nn(-c2ccccc2)c2nc(-c3ccncc3)cc(C(=O)NCc3ccco3)c12,inactive,
CC(=O)c1ccc(N2CC(C)(C)C2=O)cc1,"inconclusive: 20.6 µM [activator, single point]",
Cn1nccc1C(=O)NCCN1C(=O)OC(C)(C)C1(C)O (stereo unspecified),"inconclusive: 3.26 µM [activator, partial curve, poor fit]",
CC(=O)NS(=O)(=O)c1ccc(NC(=O)c2cc3c(=O)n4ccccc4nc3s2)cc1,"inconclusive: 13 µM [activator, partial curve, poor fit]",
Cc1ccc(S(=O)(=O)c2nc(S(=O)(=O)c3ccccc3)sc2N2CCN(C)CC2)cc1,"inconclusive: 16.4 µM [falling, partial curve]",
COc1cc2c(cc1NC(=O)CSc1ccc(Cl)cc1)oc1ccccc12,"inconclusive: 20.6 µM [falling, partial curve]",
O=C(/C=C/c1ccc(S(=O)(=O)N2CCOCC2)cc1)NC(=S)NCCCn1ccnc1,"inconclusive: 2.59 µM [activator, partial curve]",
O=C(CNC(=O)N1CC(=O)Nc2ccccc21)Nc1ccc(Cl)cc1,"inconclusive: 25.9 µM [falling, partial curve, poor fit]",
CCOC(=O)c1cc2c(=O)c3cc(C)ccc3oc2nc1C,"inconclusive: 1.46 µM [activator, full curve]",
CCn1c(-c2ccc(N(C)C)cc2)nc2ccccc21,"inconclusive: 10.3 µM [falling, partial curve, poor fit]",
CCOc1ccccc1NC(=O)C(NCCN(C)C)c1ccccc1 (stereo unspecified),inactive,
Cc1ccc2nc(C)cc(C(=O)N3CCCC(CO)(Cc4ccccc4C)C3)c2c1 (stereo unspecified),inactive,

# Single records, as listed above.
# COc1cc2c(cc1NC(=O)CSc1ccc(Cl)cc1)oc1ccccc12 in the list: Potency: inconclusive: 20.6 µM [falling, partial curve]
# O=C(CN1C(=O)c2cccnc2Oc2ccc(Cl)cc21)NCCc1ccccc1 in the list: Potency: inconclusive: 29.1 µM [activator, single point]
